# Data published in PubChem BioAssay AID445 (National Center for Advancing Translational Sciences (NCATS), 2006).
# Some of the results follow. The main result of the screen is listed elsewhere. These columns were measured beside it and carry no call. The list favours compounds with an active or inconclusive main result. Words in brackets tell the shape of the fitted curve; partial curves, single points and poor fits give uncertain potencies.
# Assay: IkB Signaling
# Conditions: ABC-DLBCL IkBa-CBG/CBR dual luciferase ratio (green luciferase fused to IkBa over red control in OCI-Ly3 lymphoma cells), 4 h
# Summary of the method: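 Curves were fitted separately to fusion (green), unfused (red) and ratio luminescence, then classed by r2, magnitude and activity. Cells: OCI-Ly3, 4 h compound plus doxycycline at 37C; 10 uM MG-132 defined full response.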
# [1] = measured here: control luc red channel unless noted
smiles,measurement,setting,value
CCOCCc1nn2c(=O)cc(COC(=O)c3ccccc3NC(=O)C3CCCCC3)nc2s1,AC50,[1],"2.51 µM [rising, partial curve]"
Oc1ccccc1C1=Nc2nc3ccccc3n2C(c2ccccc2)C1 (configuration not stated),AC50,[1],"3.16 µM [falling, partial curve]"
COc1cccc(-c2nc(SCC(=O)Nc3ccc4c(c3)OCCO4)c(-c3ccccc3)[nH]2)c1,AC50,[1],"3.98 µM [falling, full curve]"
COc1cc(NC(=O)c2c(F)c(F)c(F)c(F)c2F)c(OC)cc1Cl,AC50,[1],"12.6 µM [falling, partial curve]"
O=C(CC(=O)c1cc(Cl)ccc1O)c1ccccc1,AC50,[1],"39.8 µM [rising, single point] [measured here: IkB-luc green channel]"
Cc1ccccc1Nc1c(-c2ccco2)nc2c(C)cccn12,AC50,[1],"39.8 µM [falling, single point]"
Cc1ccc(CS(=O)(=O)c2ncc(Cl)c(C(=O)Nc3nc4ccc(C)cc4s3)n2)cc1,AC50,[1],"7.94 µM [falling, full curve]"
CCOC(=O)c1sc2ncnc(NCC(c3cccs3)N(C)C)c2c1C (configuration not stated),AC50,[1],"25.1 µM [falling, partial curve]"
Cc1n[nH]c(C)c1S(=O)(=O)N(CC(=O)Nc1ccc(C(F)(F)F)cc1)c1ccc(C(C)C)cc1,AC50,[1],"12.6 µM [falling, partial curve]"
CCOC(=O)CCNC(=O)Nc1ccc2nc(C)n(Cc3ccc(Cl)cc3)c(=O)c2c1,AC50,[1],"31.6 µM [falling, partial curve]"
COc1ccc(C)c2sc(N(Cc3cccnc3)C(=O)C3CCCCC3)nc12,AC50,[1],"7.94 µM [falling, partial curve]"
CCOC(=O)c1ccc(N2C(=O)c3n[nH]c(-c4ccco4)c3C2c2ccc(O)cc2)cc1 (configuration not stated),AC50,[1],"25.1 µM [falling, single point]"
c1coc(CNc2nc(-c3ccncc3)cs2)c1,AC50,[1],"20 µM [falling, single point]"
COc1ccc(C)cc1NC(=O)c1c(C)oc2ncn(CC(C)C)c(=O)c12,AC50,[1],"39.8 µM [falling, single point]"
Cc1ccc(CSCC(=O)N2CCN(c3ccccc3F)CC2)cc1,AC50,[1],"25.1 µM [falling, single point]"
Cc1ccc(S(=O)(=O)CC(=O)Nc2sc3c(c2C#N)CCCC3)cc1,AC50,[1],"5.01 µM [rising, partial curve]"
Cc1cc(C2CCCCC2)n(O)c(=O)c1,AC50,[1],"10 µM [rising, partial curve] [measured here: IkB-luc green channel]"
O=C(Nc1ccc(Cl)cc1)N1CCC(c2nc(-c3ccc(F)cc3)no2)CC1,AC50,measured here: IkB-luc green channel,"10 µM [falling, partial curve, poor fit]"
same,AC50,measured here: control luc red channel,"12.6 µM [falling, partial curve]"
COc1ccc(-c2cn3c(C)c(C(=O)Nc4cccc(C)n4)sc3n2)cc1,AC50,[1],"0.398 µM [falling, full curve]"
Cc1ccccc1NC(=O)Cn1c(=O)oc2cc(Br)ccc21,AC50,[1],"2 µM [falling, partial curve]"
COc1ccc(N(CC(=O)Nc2cccc(Cl)c2C)S(=O)(=O)c2c(C)nn(C)c2C)cc1,AC50,[1],"12.6 µM [falling, partial curve]"
COc1ccc(C2=C(C)C(=NCCCN3CCN(c4cc(C)ccc4C)CC3)NS2(=O)=O)cc1,AC50,[1],"0.251 µM [falling, partial curve]"
O=C(c1cc2c(s1)-c1ccccc1OC2)N1CCN(c2ccccc2F)CC1,AC50,[1],"12.6 µM [falling, partial curve]"
CCCCN(CC)CCCNC(=O)c1nn(C)c2c1CS(=O)(=O)c1ccccc1-2,AC50,[1],"25.1 µM [falling, single point]"
CCOC(=O)C1CCCN(c2cc(C)nc3c(-c4ccccc4OC)c(C)nn23)C1 (configuration not stated),AC50,[1],"39.8 µM [falling, single point]"
Cc1cccc2cc(CN(Cc3cccs3)C(c3nnnn3C3CCCC3)C(C)C)c(=O)[nH]c12 (configuration not stated),AC50,[1],"3.98 µM [falling, partial curve]"
O=C(Nc1cccc(OCc2cc(=O)n3c4c(sc3n2)CCCC4)c1)c1ccc(F)cc1,AC50,[1],"1 µM [falling, single point]"
Cc1ccc2nc(-c3cc(NC(=O)/C=C/c4ccccc4)ccc3Cl)oc2c1,AC50,[1],"5.01 µM [falling, partial curve]"
CCOc1ccc(-c2nnc(SCC(=O)NCCc3ccc(OC)c(OC)c3)nc2-c2ccc(OCC)cc2)cc1,AC50,[1],"39.8 µM [falling, partial curve, poor fit]"
COc1ccc(C(=O)Nc2ccc3nc(N4CCC(C)CC4)cc(C)c3c2)cc1,AC50,[1],"0.398 µM [falling, single point]"
COc1ccc(Cl)cc1-n1c(/C=C/c2cccc3ccccc23)nc2ccccc2c1=O,AC50,[1],"31.6 µM [falling, single point]"
CCC/C(O)=C1\C(=O)CC(C)(C)CC1=Nc1ccccc1OC,AC50,[1],"20 µM [falling, partial curve]"
O=C(CC1c2ccccc2Oc2ccccc21)N1CCN(c2ccccn2)CC1,AC50,[1],"15.8 µM [falling, partial curve]"
CCOc1cccc(C(c2c(C)n(C)n(-c3ccccc3)c2=O)c2c(C)n(C)n(-c3ccccc3)c2=O)c1OC,AC50,[1],"20 µM [falling, partial curve]"
Cc1ccnc(NC(=O)C2CCN(S(=O)(=O)c3cccc4nsnc34)CC2)c1,AC50,[1],"12.6 µM [falling, partial curve]"
CCOc1ccccc1NC(=O)Cn1c(=O)n(-c2ccc(F)cc2)c(=O)c2sc3ccccc3c21,AC50,[1],"15.8 µM [falling, partial curve]"
COc1cccc(-n2c(=O)c3sc4ccccc4c3n(CC(=O)NC3CCCCC3)c2=O)c1,AC50,[1],"10 µM [rising, partial curve, poor fit]"
O=C(C1CCCCN1S(=O)(=O)c1ccc(F)cc1)N1CCN(c2ccccc2F)CC1 (configuration not stated),AC50,[1],"12.6 µM [falling, partial curve]"
Cn1c(=O)oc2cc(S(=O)(=O)NCCC(=O)Nc3ccc(F)cc3F)ccc21,AC50,[1],"25.1 µM [falling, single point]"
COc1ccccc1-n1cnnc1SC1CCOC1=O (configuration not stated),AC50,[1],"0.0501 µM [falling, full curve]"
CCCCn1c(=N)n(CC(O)COc2cccc(C)c2)c2ccccc21 (configuration not stated),AC50,[1],"12.6 µM [falling, partial curve]"
CCCCC(=O)NC1CC(=O)N(c2ccc3c(c2)OCCO3)C1 (configuration not stated),AC50,[1],"2.51 µM [rising, partial curve]"
CC1(C)Cc2c(sc3c2c(=N)n(Cc2ccco2)c(=O)n3CC(=O)Nc2ccccc2)CO1,AC50,[1],"12.6 µM [falling, partial curve]"
CCN(CCCNC(=O)C1CCC(=O)N1Cc1ccc(C)cc1)c1cccc(C)c1 (configuration not stated),AC50,[1],"20 µM [falling, partial curve]"
CCOc1ccc(CCNC(=O)c2cn(C)c3ccc(S(=O)(=O)N4CCCCC4)cc3c2=O)cc1OCC,AC50,[1],"3.16 µM [rising, partial curve]"
CCCc1cc(-c2[nH]ncc2-c2ccc(C(=O)OCC)o2)c(O)cc1O,AC50,[1],"20 µM [falling, partial curve]"
COc1ccccc1C(=O)Nc1cccc(C(=O)OCc2cc(=O)n3cc(C)sc3n2)c1,AC50,[1],"5.01 µM [falling, partial curve]"
O=C(CCn1cnc2ccccc2c1=O)NCc1ccccc1Cl,AC50,[1],"3.98 µM [falling, partial curve, poor fit]"
O=C(OCc1cc2ccccc2[nH]c1=O)c1ccccc1,AC50,[1],"10 µM [falling, partial curve]"
COc1ccc(-c2nc(C)c(CCNS(=O)(=O)c3cc(Cl)ccc3Cl)s2)cc1,AC50,[1],"39.8 µM [falling, single point]"
COC(=O)CN1C(=O)CSc2ccc(S(=O)(=O)Nc3cc(C)ccc3C)cc21,AC50,[1],"15.8 µM [falling, partial curve]"
Cc1nc2cccnc2n1-c1cccc(C(=O)N2CCN(c3cccc(Cl)c3)CC2)c1,AC50,[1],"15.8 µM [falling, partial curve]"
N#Cc1nc(-c2ccc(OCc3ccccc3)cc2)oc1NCCCN1CCOCC1,AC50,[1],"15.8 µM [falling, partial curve]"
CCCn1c(=O)n(-c2ccccc2Cl)c(=O)c2sc3ccccc3c21,AC50,[1],"2.51 µM [rising, partial curve]"
Cc1cc(C)c(NC(=O)Cn2nc(-c3ccncc3)ccc2=O)c(C)c1,AC50,[1],"6.31 µM [falling, partial curve, poor fit]"
O=C(CN1C(=O)C(c2ccc(F)cc2)=NC12CCCCCC2)Nc1ccccc1Cl,AC50,[1],"15.8 µM [falling, partial curve]"
CC1=Nc2cc(C(=O)NCc3ccccc3Cl)ccc2Sc2c(C)ccc(C)c21,AC50,[1],"3.98 µM [rising, partial curve]"
Cc1cc(Nc2nc3ccccc3[nH]c2=O)n(-c2ccccc2)n1,AC50,[1],"25.1 µM [rising, partial curve] [measured here: IkB-luc green channel]"
COc1ccc(-c2ccc3c(N)c(C(=O)Nc4ccc(C(F)(F)F)cc4)sc3n2)cc1OC,AC50,[1],"3.16 µM [falling, full curve]"
CCCCn1c(SCC(=O)c2ccccc2)nc2c(sc3ccccc32)c1=O,AC50,[1],"12.6 µM [rising, partial curve]"
CCN(C(=O)Cn1nnc2sc3c(c2c1=O)CCC(C(C)(C)C)C3)c1cccc(C)c1 (configuration not stated),AC50,[1],"25.1 µM [falling, partial curve]"

# Given with bars between the fields: entries from further up
smiles | measurement | setting | value
COc1cccc(-n2c(=O)c3sc4ccccc4c3n(CC(=O)NC3CCCCC3)c2=O)c1 | AC50 | [1] | 10 µM [rising, partial curve, poor fit]
O=C(C1CCCCN1S(=O)(=O)c1ccc(F)cc1)N1CCN(c2ccccc2F)CC1 (configuration not stated) | AC50 | [1] | 12.6 µM [falling, partial curve]
